The results in this text go back to patent US20170131257A1, “SYSTEMS AND METHODS OF REMOVING AND MANAGING HEAVY METALS” (priority 2007, published 2017).

The structures appear in SMILES notation. Counter-ions that a name gives are not always drawn. Like-named read-outs stand apart in the source and are kept apart here. Some values come without a unit; they compare only within their column.

For this data set, the system named is Zebra Fish. It is filed as in vivo. The conditions noted are these: fed 6 days, N=4. As to the method: Following EPA Method 7473, a total of 44 Zebra fish were randomized into four one gallon tanks and fed an experimental or control diet for 6 days. On the seventh day the fish were not fed so that any food being digested would have been absorbed or eliminated. The fish were fed 1.0 gram of food twice a day the first day. On the second day the fish were fed 0.5 grams twice a day. On days 3-6 the fish were fed 0.5 gram once a day.
The control and experimental feed was prepared using:
9.8 g. Frozen Thawed Brine Shrimp
The corn starch and water were boiled for 2 minutes then mixed with the remaining ingredients. The basic food was divided into four groups. The study groups consisted of: the control (Group C), an experimental group in which phytic acid di-sodium salt was added to the feed at 5% by […] (Group A), an experimental group in which 15 μg mercuric iodide salt per gram of food was added (Group B), and lastly Group D in which fish were fed the above stated amounts of mercuric iodide salt and phytic acid di-sodium salt.
The analysis was conducted by a contracted company, Northwest Pacific Labs. Samples were stratified by treatment and randomly sampled. A test of atomic absorption was used to determine absorbed mercury, after calibrating the instrument.

Turning to `[I][Hg][I]` [Mercury Iodide Salt, mercuric iodide salt, reference compound], under “Group B: 15 micrograms mercuric iodide salt per gram food, no phytic acid”, the “Total Hg Wet Weight, Mean” value is reported as “.1478”.

`O=P(O)(O)O[C@H]1[C@H](OP(=O)(O)O)[C@@H](OP(=O)(O)O)[C@H](OP(=O)(O)O)[C@@H](OP(=O)(O)O)[C@H]1OP(=O)(O)O` [Phytic Acid, phytic acid]: the “Total Hg Wet Weight, Mean” value (Group A: phytic acid di-sodium salt 5% per wt. in feed, no mercury added) is “.0621”.
